Assay results reported in PubChem BioAssay AID248 (DTP/NCI, 2004).
The list does not hold the whole screen: it gathers tests that were run many times, whatever their T/C, doses with no T/C, and many T/C values between a quarter and a half above the control. Other doses and runs of a compound stand elsewhere. T/C is the treated group as % of the vehicle group. For survival time, this PubChem deposit counts one and a half times the control or more as active, and values a quarter to a half above the control carry no call in these data; other NCI protocols may use other cut-offs. Schedule codes are those of the source, taken here to give the interval after Q, in days (D) or hours (H), and the number of doses after X. Some T/C values are followed by the survivors on the day toxicity was checked, most often the fifth; where none is given, no animal had died by that day. Some doses were run more than once; their values stand side by side, smallest first. Additions like (4×) give the number of equal values in this list. Some schedule codes hold Z or #, which are not explained here.

System: L1210 leukemia ip in BDF1 mice, survival T/C
Test: NCI In Vivo Anticancer Drug Screen. Data for tumor model L1210 Leukemia (intraperitoneal) in B6D2F1 (BDF1) mice
Conditions: T/C endpoint: mean survival time, higher T/C = longer survival

S=c1nc[nH]c2nc[nH]c12
T/C (dose: 0.6 mg/kg/injection, schedule: Q#A X Z (ip), vehicle: other): 140 % of control
T/C (dose: 1.25 mg/kg/injection, schedule: Q#A X Z (ip), vehicle: other): 148 % of control
T/C (dose: 2.5 mg/kg/injection, schedule: Q01DX Z (ip), vehicle: other): 130 % of control
T/C (dose: 3.25 mg/kg/injection, schedule: Q01DX015 (ip), vehicle: other): 144 % of control
T/C (dose: 3.5 mg/kg/injection, schedule: Q01DX Z (ip), vehicle: carboxymethylcellulose (CMC)): 110, 111, 115, 123, 127, 128, 132, 147 % of control
T/C (dose: 4.4 mg/kg/injection, schedule: Q01DX001 (ip), vehicle: other): 137 % of control
T/C (dose: 4.4 mg/kg/injection, schedule: Q07DX Z (ip), vehicle: other): 131 % of control
T/C (dose: 5.0 mg/kg/injection, schedule: Q01DX010 (ip), vehicle: alkali diluted with saline): 96, 97, 100, 101 % of control
T/C (dose: 5.0 mg/kg/injection, schedule: Q01DX Z (ip), vehicle: carboxymethylcellulose (CMC)): 134 % of control
T/C (dose: 5.0 mg/kg/injection, schedule: Q01DX Z (ip), vehicle: other): 144 % of control
T/C (dose: 5.0 mg/kg/injection, schedule: Q#A X Z (ip), vehicle: other): 145 and 147 % of control
T/C (dose: 6.25 mg/kg/injection, schedule: Q01DX015 (ip), vehicle: alkali diluted with saline, evaluated on day 5): 106 and 116 % of control
T/C (dose: 6.25 mg/kg/injection, schedule: Q01DX015 (ip), vehicle: alkali diluted with saline, evaluated on day 30): 106 and 116 % of control
T/C (dose: 7.0 mg/kg/injection, schedule: Q01DX Z (ip), vehicle: carboxymethylcellulose (CMC)): 134 (2×), 135 (2×), 140, 141, 144, 147, 151 % of control
T/C (dose: 7.0 mg/kg/injection, schedule: Q01DX Z (oral), vehicle: carboxymethylcellulose (CMC)): 106, 107, 108, 110, 131 % of control
T/C (dose: 7.5 mg/kg/injection, schedule: Q## X027 (ip), vehicle: saline): 139 % of control
T/C (dose: 8.0 mg/kg/injection, schedule: Q01DX015 (ip), vehicle: carboxymethylcellulose (CMC)): 136 % of control
T/C (dose: 8.0 mg/kg/injection, schedule: Q12HX012 (ip), vehicle: alkali diluted with saline): 127 % of control
T/C (dose: 8.56 mg/kg/injection, schedule: Q01DX Z (ip), vehicle: carboxymethylcellulose (CMC)): 138 % of control
T/C (dose: 8.8 mg/kg/injection, schedule: Q07DX Z (ip), vehicle: other): 146 % of control
T/C (dose: 9.0 mg/kg/injection, schedule: Q01DX015 (ip), vehicle: alkali diluted with saline): 127 % of control
T/C (dose: 10.0 mg/kg/injection, schedule: Q01DX009 (ip), vehicle: saline with Tween-80): 132 and 136 % of control
T/C (dose: 10.0 mg/kg/injection, schedule: Q01DX010 (ip), vehicle: alkali diluted with saline): 94, 102, 105, 108 % of control
T/C (dose: 10.0 mg/kg/injection, schedule: Q01DX Z (ip), vehicle: alkali diluted with saline): 127 % of control
T/C (dose: 10.0 mg/kg/injection, schedule: Q01DX Z (ip), vehicle: carboxymethylcellulose (CMC)): 144 % of control
T/C (dose: 10.0 mg/kg/injection, schedule: Q01DX Z (ip), vehicle: other): 136 % of control
T/C (dose: 10.0 mg/kg/injection, schedule: Q## X032 (ip), vehicle: alkali diluted with saline): 126 % of control
T/C (dose: 10.0 mg/kg/injection, schedule: Q#A X Z (ip), vehicle: other): 149 % of control
T/C (dose: 12.5 mg/kg/injection, schedule: Q01DX015 (ip), vehicle: alkali diluted with saline, evaluated on day 5): 106 and 118 % of control
T/C (dose: 12.5 mg/kg/injection, schedule: Q01DX015 (ip), vehicle: alkali diluted with saline, evaluated on day 30): 106 and 118 % of control
T/C (dose: 12.5 mg/kg/injection, schedule: Q01DX Z (ip), vehicle: other): 125 % of control
T/C (dose: 13.0 mg/kg/injection, schedule: Q02DX010 (ip), vehicle: carboxymethylcellulose (CMC)): 140 % of control
T/C (dose: 13.0 mg/kg/injection, schedule: Q06HX012 (ip), vehicle: alkali diluted with saline): 142 % of control
T/C (dose: 13.0 mg/kg/injection, schedule: Q12HX012 (ip), vehicle: alkali diluted with saline): 132 % of control
T/C (dose: 14.0 mg/kg/injection, schedule: Q01DX Z (ip), vehicle: alkali diluted with saline): 126 % of control
T/C (dose: 14.0 mg/kg/injection, schedule: Q01DX Z (ip), vehicle: carboxymethylcellulose (CMC)): 137, 147, 153, 156 (2×), 163, 172, 178, 190 % of control [5 of 6 alive]
T/C (dose: 14.0 mg/kg/injection, schedule: Q01DX Z (oral), vehicle: alkali diluted with saline): 134 % of control
T/C (dose: 14.0 mg/kg/injection, schedule: Q01DX Z (oral), vehicle: carboxymethylcellulose (CMC)): 110, 120 (2×), 131, 138 % of control
T/C (dose: 14.0 mg/kg/injection, schedule: Q02DX010 (ip), vehicle: carboxymethylcellulose (CMC)): 148 % of control
T/C (dose: 14.5 mg/kg/injection, schedule: Q02DX010 (ip), vehicle: carboxymethylcellulose (CMC)): 147, 154, 160, 164 % of control
T/C (dose: 15.0 mg/kg/injection, schedule: Q01DX001 (ip), vehicle: saline): 126 (3×), 129, 132, 133 (2×), 145 % of control
T/C (dose: 15.0 mg/kg/injection, schedule: Q01DX005 (ip), vehicle: saline): 143 and 148 % of control
T/C (dose: 15.0 mg/kg/injection, schedule: Q01DX009 (ip), vehicle: alkali diluted with saline, evaluated on day 30): 112, 119, 123, 124 % of control
T/C (dose: 15.0 mg/kg/injection, schedule: Q01DX009 (ip), vehicle: alkali diluted with saline, evaluated on day 60): 132 % of control
T/C (dose: 15.0 mg/kg/injection, schedule: Q01DX009 (ip), vehicle: other): 140 and 142 % of control
T/C (dose: 15.0 mg/kg/injection, schedule: Q01DX015 (ip), vehicle: saline): 134 % of control
T/C (dose: 15.0 mg/kg/injection, schedule: Q02DX010 (ip), vehicle: carboxymethylcellulose (CMC)): 139, 156, 197, 203 % of control
T/C (dose: 15.0 mg/kg/injection, schedule: Q## X027 (ip), vehicle: saline): 136 % of control
T/C (dose: 16.0 mg/kg/injection, schedule: Q01DX015 (ip), vehicle: carboxymethylcellulose (CMC)): 149 % of control
T/C (dose: 16.0 mg/kg/injection, schedule: Q## X032 (ip), vehicle: alkali diluted with saline): 130 % of control
T/C (dose: 16.2 mg/kg/injection, schedule: Q02DX010 (ip), vehicle: carboxymethylcellulose (CMC)): 145 % of control
T/C (dose: 16.34 mg/kg/injection, schedule: Q02DX010 (ip), vehicle: carboxymethylcellulose (CMC)): 137 % of control
T/C (dose: 18.0 mg/kg/injection, schedule: Q01DX009 (ip), vehicle: alkali diluted with saline): 134 % of control
T/C (dose: 18.0 mg/kg/injection, schedule: Q## X009 (ip), vehicle: alkali diluted with saline): 134 % of control
T/C (dose: 20.0 mg/kg/injection, schedule: Q01DX005 (ip), vehicle: other): 103, 110, 113, 114, 114 [5 of 6 alive], 116 (2×), 121 (2×), 122 (2×), 123, 134 % of control [5 of 6 alive]
T/C (dose: 20.0 mg/kg/injection, schedule: Q01DX010 (ip), vehicle: alkali diluted with saline): 98, 101, 108 % of control (2×)
T/C (dose: 20.0 mg/kg/injection, schedule: Q01DX Z (ip), vehicle: other): 148 % of control
T/C (dose: 20.0 mg/kg/injection, schedule: Q01DX Z (oral), vehicle: other): 132 % of control
T/C (dose: 20.0 mg/kg/injection, schedule: Q01DX Z (sc), vehicle: other): 136 % of control
T/C (dose: 21.9 mg/kg/injection, schedule: Q02DX010 (ip), vehicle: carboxymethylcellulose (CMC)): 150, 154, 161 (2×), 179 % of control
T/C (dose: 22.0 mg/kg/injection, schedule: Q02DX010 (ip), vehicle: carboxymethylcellulose (CMC)): 139, 143, 158 (2×), 160, 163, 165, 184, 185, 186 % of control
T/C (dose: 22.0 mg/kg/injection, schedule: Q02DX010 (ip), vehicle: other): 132, 136, 161, 176 % of control
T/C (dose: 25.0 mg/kg/injection, schedule: Q01DX009 (ip), vehicle: saline): 146 % of control
T/C (dose: 25.0 mg/kg/injection, schedule: Q01DX015 (ip), vehicle: alkali diluted with saline, evaluated on day 5): 116 and 122 % of control
T/C (dose: 25.0 mg/kg/injection, schedule: Q01DX015 (ip), vehicle: alkali diluted with saline, evaluated on day 30): 116 and 122 % of control
T/C (dose: 25.0 mg/kg/injection, schedule: Q01DX Z (ip), vehicle: other): 137 % of control
T/C (dose: 25.46 mg/kg/injection, schedule: Q02DX010 (ip), vehicle: carboxymethylcellulose (CMC)): 145 % of control
T/C (dose: 26.0 mg/kg/injection, schedule: Q01DX015 (ip), vehicle: alkali diluted with saline, evaluated on day 5): 115, 116, 117, 120 (2×), 121, 122, 127, 134, 136 % of control
T/C (dose: 26.0 mg/kg/injection, schedule: Q01DX015 (ip), vehicle: alkali diluted with saline, evaluated on day 35): 136 % of control
T/C (dose: 26.0 mg/kg/injection, schedule: Q01DX015 (ip), vehicle: alkali diluted with saline, evaluated on day 45): 115, 117, 120, 121, 127 % of control
T/C (dose: 26.0 mg/kg/injection, schedule: Q## X032 (ip), vehicle: alkali diluted with saline): 145 % of control
T/C (dose: 27.0 mg/kg/injection, schedule: Q01DX009 (ip), vehicle: alkali diluted with saline): 142 % of control
T/C (dose: 27.0 mg/kg/injection, schedule: Q01DX015 (ip), vehicle: alkali diluted with saline): 132 % of control
